Data: PMC4165759
No constants are given. Whether binding was seen depends on the method and setting. Binding calls can cover weak binding; strength is not graded here.

Protein sequences, listed by entry. Tags and fused reporters are not part of them.
UniProt Q9SSA8: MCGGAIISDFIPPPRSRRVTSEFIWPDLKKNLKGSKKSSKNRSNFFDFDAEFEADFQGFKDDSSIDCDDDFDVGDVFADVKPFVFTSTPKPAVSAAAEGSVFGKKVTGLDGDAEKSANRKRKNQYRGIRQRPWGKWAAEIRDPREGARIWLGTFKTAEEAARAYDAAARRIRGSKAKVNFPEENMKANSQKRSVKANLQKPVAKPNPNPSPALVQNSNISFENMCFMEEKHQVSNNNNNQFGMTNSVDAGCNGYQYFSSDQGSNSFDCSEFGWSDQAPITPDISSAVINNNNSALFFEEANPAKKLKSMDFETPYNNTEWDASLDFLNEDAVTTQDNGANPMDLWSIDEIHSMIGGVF
UniProt Q9LUM4: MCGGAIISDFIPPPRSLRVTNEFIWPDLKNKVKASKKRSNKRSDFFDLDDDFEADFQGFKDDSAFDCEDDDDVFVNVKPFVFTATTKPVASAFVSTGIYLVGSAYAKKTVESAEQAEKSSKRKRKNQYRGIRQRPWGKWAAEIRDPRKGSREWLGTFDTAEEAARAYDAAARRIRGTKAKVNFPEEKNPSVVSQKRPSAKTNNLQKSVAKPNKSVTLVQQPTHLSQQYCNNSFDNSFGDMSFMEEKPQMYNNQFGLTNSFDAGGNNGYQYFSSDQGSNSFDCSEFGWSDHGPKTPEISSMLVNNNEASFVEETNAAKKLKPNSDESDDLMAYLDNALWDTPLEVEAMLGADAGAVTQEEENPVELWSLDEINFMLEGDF
UniProt Q8H0T5: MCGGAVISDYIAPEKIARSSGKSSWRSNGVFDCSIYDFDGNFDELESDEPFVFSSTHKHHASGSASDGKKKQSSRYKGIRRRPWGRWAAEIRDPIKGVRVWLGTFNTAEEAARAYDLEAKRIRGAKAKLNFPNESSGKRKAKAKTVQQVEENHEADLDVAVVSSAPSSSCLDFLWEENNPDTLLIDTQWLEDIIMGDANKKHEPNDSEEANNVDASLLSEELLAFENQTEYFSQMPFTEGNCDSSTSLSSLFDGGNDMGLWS
UniProt O22259: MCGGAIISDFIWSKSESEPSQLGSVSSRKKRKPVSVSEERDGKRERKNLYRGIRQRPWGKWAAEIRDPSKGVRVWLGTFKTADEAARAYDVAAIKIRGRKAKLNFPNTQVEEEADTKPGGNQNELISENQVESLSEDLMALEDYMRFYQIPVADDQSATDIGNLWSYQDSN

target: HRA1 C-terminal fragment (HRA1_(194–431)), yeast two-hybrid fusion of Figure 4B (Arabidopsis thaliana) (UniProt F4J2I9); experiment: two-hybrid; ProQuest Two-Hybrid System, S. cerevisiae MaV203; baits in pDEST32, preys in pDEST22; growth on SC-LWH with 10 mM 3AT and β-galactosidase (LacZ) staining; 28°C

Substance | binding
RAP2.12, yeast two-hybrid fusion of Figure 4B (from UniProt Q9SSA8 1-358) | binds
RAP2.2, yeast two-hybrid fusion of Figure 4B (from UniProt Q9LUM4 1-379) | no binding
HRE1, yeast two-hybrid fusion of Figure 4B (from UniProt Q8H0T5 1-262) | no binding
HRE2, yeast two-hybrid fusion of Figure 4B (from UniProt O22259 1-171) | no binding
